Results from PMC7318222, “A Family of Water‐Immiscible, Dipolar Aprotic, Diamide Solvents from Succinic Acid” (Chemsuschem, 2020).
No dose or concentration is given here for some results.

The compounds below were run on human U2-OS cells (assay: CALUX panel of 18 in vitro reporter gene assays (overall)). Conditions: of 18 CALUX assays.
Assay type: cell-based
For `CCCCN(CC)C(=O)CCC(=O)N(CC)CCCC` [EBSA, N,N′‐diethyl‐N,N′‐dibutylsuccindiamide], the “number of active assays” value was 2.
In the case of `CCCCN(C)C(=O)CCC(=O)N(C)CCCC` [MBSA, N,N′‐dimethyl‐N,N′‐dibutylsuccindiamide], the “number of active assays” value is reported as 4.
For `CCCCN(CCCC)C(=O)CCC(=O)N(CCCC)CCCC` [TBSA, N,N,N′,N′‐tetrabutylsuccindiamide], the “number of active assays” value was 2.
